This experiment can be described thus: qHTS Assay for Lipid Storage Modulators in Drosophila S3 Cells.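 As to cell number change: cells counted by Cell Tracker Red CMTPX staining in the red channel.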 Conditions: BODIPY lipid droplet fluorescence, 18-24 h; for cell number change: measured here: cell count max response, cells fed with added oleic acid. The gist of the method: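 Laser-scanning cytometry quantifies lipid droplet accumulation (500–530 nm total intensity; droplet/cell object ratio) in oleic acid-fed (400 uM added) Drosophila S3 cells treated with a concentration series. 20 uM Triacsin C defined 100% inhibition.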

[1] abbreviates: measured here: lipid fluorescence (Fed channel) AC50, cells fed with added oleic acid.
Setting [2] is: measured here: cell number channel AC50, cells fed with added oleic acid.

Some of the results follow. The main result of the screen is listed elsewhere. These columns were measured beside it and carry no call. Compounds called inactive in the main read-out are mostly missing here. Potencies come from curve fits of mixed quality, noted in brackets.

With `N#CC1=C(SCC(=O)NC23CC4CC(CC(C4)C2)C3)NC(=O)C(C#N)C12CCCCC2` (stereo unspecified), the cell number change was -15.5%. Besides, the AC50 under setting [1] was 20.6 µM [falling, single point].

For `CCC(=O)N1CCN(c2ccc(Cl)cc2NC(=O)c2ccc3c(c2)OCCO3)CC1`, the cell number change was -17%.

For `COc1ccc(C)cc1NC(=O)CCNC(=O)Cn1ccc2ccccc2c1=O`, the cell number change stood at 21.4%. Besides, the AC50 under setting [2] is 0.0259 µM [rising, full curve, poor fit].

As for `CC(C)c1ccc(Nc2nc(Cl)nc(Cl)n2)cc1`, the cell number change is -7.62%. Moreover, under setting [1], the AC50 is 0.00461 µM [rising, full curve, poor fit].

Take `COc1ccc(C2NC(=S)N3C(c4ccc(OC)cc4)NC(=S)N23)cc1` (stereo unspecified): the cell number change was found to be 5.89%.

Regarding `O=c1c(Cl)c(N2CCN(c3ccc(F)cc3)CC2)cnn1C12CC3CC(CC(C3)C1)C2`, the cell number change was -22.8%. In addition, the AC50 under setting [1] was 14.6 µM [falling, single point].

`COc1cc(COCC(O)CN2C(C)CCCC2C)cc(OC)c1OC` (stereo unspecified): the cell number change came to 37.2%. Under setting [2], the AC50 was 32.6 µM [rising, partial curve, poor fit]. In addition, under setting [1], the concentration at half-maximal activity (AC50) is 29.1 µM [rising, single point].

With `COc1ccc(NC(=O)COC(C)=O)cc1OC`, the cell number change stood at 14%.

Take `Cc1ccn2c(Nc3ccccc3)c(-c3ccccn3)nc2c1`: the cell number change is -31%. Further, under setting [2], the AC50 is 10.3 µM [falling, partial curve].

With `COc1ccc(/C=N/Nc2ccc(C(=O)O)cc2)cc1OC`, the cell number change stood at 12.8%. Besides, the AC50 under setting [2] was 0.00517 µM [rising, full curve, poor fit]. The concentration at half-maximal activity (AC50) under setting [1] was 0.0058 µM [rising, full curve, poor fit].

For the molecule `O=C(Nc1cc(C(F)(F)F)ccc1N1CCOCC1)c1ccc(F)cc1`, the cell number change amounted to 5.22%. The AC50 under setting [1] was 7.31 µM [rising, partial curve].

Consider `CC(=O)c1cnc2scnn2c1=O`, for which the cell number change was -37.9%.

Consider `COc1cc2[nH]c(C(=O)N3CCN(c4ccc(F)cc4)CC3)cc2c(OC)c1OC`, for which the cell number change was -49.5%. The AC50 under setting [2] was 29.1 µM [falling, single point]. The AC50 under setting [1] is 29.1 µM [falling, single point].

With `Cc1ccc(C(=O)N/N=C/c2ccc(-c3ccccc3[N+](=O)[O-])o2)cn1`, the cell number change was -16.1%.

Regarding `CCOC(=O)C1CCCCN1Cc1ccc(OC)c(OC)c1` (stereo unspecified), the cell number change is -53.1%. Also, the AC50 under setting [2] is 29.1 µM [falling, single point]. The AC50 under setting [1] was 29.1 µM [falling, single point].

Regarding `Cc1ccc(S(=O)(=O)CC(=O)Nc2c(C)n(C)n(-c3ccccc3)c2=O)cc1`, the AC50 under setting [1] is 0.411 µM [rising, single point].

On to `CS(=O)(=O)N1CCC(C(=O)Nc2cccc(F)c2)CC1`, for which the cell number change was determined as 13.8%. For the same molecule, the AC50 under setting [1] is 1.3 µM [rising, full curve].

For the molecule `COc1ccc(S(=O)(=O)Nc2cc(Sc3ncn[nH]3)c(O)c3ccccc23)cc1`, the cell number change is -32%. In addition, under setting [2], the AC50 was 16.4 µM [falling, single point]. Moreover, the AC50 under setting [1] was 18.4 µM [falling, partial curve].

For the molecule `COc1ccc(CC(=O)OCC(=O)NCc2ccccc2Cl)cc1OC`, the cell number change is -59.3%. Besides, the AC50 under setting [2] is 29.1 µM [falling, single point].

For `COc1ccc(/C=N/NC(=S)Nc2ccccc2)cc1COc1ccc(F)cc1`, the cell number change was -10.9%. In addition, the AC50 under setting [1] was 0.116 µM [rising, full curve, poor fit].

Regarding `Cc1ccc(S(=O)(=O)N(CC(=O)Nc2ccc(C)cc2C)C(=O)N2CCN(C)CC2)cc1`, the cell number change came out at 5.33%. In addition, under setting [1], the AC50 is 23.1 µM [falling, single point].

Turning to `Cc1ccc(S(=O)(=O)Nc2nc3ccccc3nc2NCC2CCCO2)cc1` (stereo unspecified), the cell number change came out at 9.18%. Also, the AC50 under setting [1] is 0.58 µM [rising, partial curve].

Take `Cc1c(O)c(CN2CCCCC2)cc2c3c(c(=O)oc12)CCC3`: the cell number change is -12.5%. The AC50 under setting [1] was 1.16 µM [rising, single point].

For `Cc1cnc(NC(=O)CCCc2nc3ccccc3s2)s1`, the AC50 under setting [2] is 4.11 µM [falling, single point] and the AC50 under setting [1] is 5.8 µM [falling, partial curve].

For the molecule `CCOCCCNC(=S)N(CCO)Cc1cc2cc3c(cc2[nH]c1=O)OCCO3`, the cell number change is -23%. In addition, the AC50 under setting [1] is 29.1 µM [falling, single point].

For `Clc1ccccc1-c1nc(-c2ccc(Br)o2)no1`, the cell number change was -1.01%. Further, the AC50 under setting [2] is 6.51 µM [falling, single point].

With `Cc1c(C#N)c(N)nc2c3c(sc12)NC(=O)CC3c1ccccc1` (stereo unspecified), the cell number change was 13.6%. The concentration at half-maximal activity (AC50) under setting [1] is 13 µM [rising, single point].

As to `CCC(=O)NC(=S)Nc1ccc(NC(=O)c2ccc(C)c([N+](=O)[O-])c2)cc1`, the cell number change was found to be 7.78%. Besides, under setting [2], the AC50 is 1.84 µM [rising, partial curve].

Take `CN1C(=O)CC(Sc2ncccc2C(=O)O)C1=O` (stereo unspecified): the cell number change is -19.1%. The AC50 under setting [1] was 3.26 µM [falling, full curve, poor fit].

With `COCCNC(=O)CN(C(=O)CCC(=O)Nc1nccs1)c1ccc2c(c1)OCO2`, the cell number change is 5.98%. Besides, the AC50 under setting [1] was 0.164 µM [falling, full curve, poor fit].

Take `COc1ccc(C(=O)/C=C(\N)C(F)(F)F)c(O)c1`: the cell number change turned out to be 0.404%.

`COc1ccc(CC(=O)NC(=S)Nc2ccc(S(N)(=O)=O)cc2)cc1`: the cell number change came to 85.1%. Moreover, under setting [2], the AC50 is 4.11 µM [rising, full curve].

For `O=C(c1ccccc1)N1CCN(C(=O)c2ccc(OC(F)(F)F)cc2)CC1`, the cell number change is -4.69%. The AC50 under setting [1] is 29.1 µM [rising, partial curve, poor fit].

Take `O=C(Nc1ccc([N+](=O)[O-])cc1)Nc1ccc2[nH]c(=O)[nH]c2c1`: the cell number change was -50.2%.

Turning to `Cc1ccc(N2CCCn3c2nc2c3c(=O)n(CC(=O)OCc3ccccc3)c(=O)n2C)cc1C`, the cell number change is 8.07%. The AC50 under setting [1] is 5.17 µM [rising, single point].

With `COc1ccc(NC(=O)CSc2ccc3c(c2)OCCO3)cc1OC`, the cell number change is -29.6%.

Take `CCOc1ccc(N(CC(=O)Nc2ccccc2OC)S(=O)(=O)c2ccccc2)cc1`: the cell number change came out at 10.8%. Moreover, the AC50 under setting [1] is 11.6 µM [rising, partial curve].

For `Cc1occc1C(=O)N1CCCC(Nc2ccc(F)cc2)C1` (stereo unspecified), the cell number change worked out at 21.3%. Further, under setting [1], the concentration at half-maximal activity (AC50) was 6.51 µM [rising, full curve].

On to `Cc1cc2c(cc1C)C(c1ccccc1OC(C)C)CC(=O)N2` (stereo unspecified), for which the cell number change was -36.2%.

With `COc1cc(NC(=S)NC(=O)CCc2ccccc2)cc(OC)c1`, the cell number change stood at 30.7%. The AC50 under setting [2] was 23.1 µM [rising, single point]. The half-maximal activity concentration (AC50) under setting [1] is 32.6 µM [rising, partial curve, poor fit].

Source of the values: PubChem BioAssay AID2685 (National Center for Advancing Translational Sciences (NCATS), 2010).
